Laboratory results reported in EP4470537A1, “COMPOUND FOR USE IN TREATING FIBRODYSPLASIA OSSIFICANS PROGRESSIVA (FOP)” (Queen's University At Kingston, priority 2023, dated 2024).

Assay: Mapping a therapeutic window (efficacy versus toxicity)
Assay type: in vivo
Settings: result in words; efficacy of 50% or greater versus toxicity, juvenile mouse

With CC1(C)CCC(C)(C)c2cc(Cn3cccn3)c(/C=C/c3ccc(C(=O)O)cc3)cc21 [palovarotene, reference compound] as the molecule, how does the therapeutic window read?
Its therapeutic window is “no dose of palovarotene which is able to elicit efficacy of 50% or greater, without toxicity; also recorded: no therapeutic window”.

“Also recorded” adds a separate entry of the source.
